Reference: publication PMC3544915
Results are given in words; binding and its absence hold for the method and conditions named. Binding seen in cells or lysates may run through a third protein. Some results given as binding are weak or reduced against the parent protein; the word gives no strength. Tags and fused reporters may be left off the sequences shown.

Chains of the proteins cited; added tags and fusions are not shown.
UniProt O59923: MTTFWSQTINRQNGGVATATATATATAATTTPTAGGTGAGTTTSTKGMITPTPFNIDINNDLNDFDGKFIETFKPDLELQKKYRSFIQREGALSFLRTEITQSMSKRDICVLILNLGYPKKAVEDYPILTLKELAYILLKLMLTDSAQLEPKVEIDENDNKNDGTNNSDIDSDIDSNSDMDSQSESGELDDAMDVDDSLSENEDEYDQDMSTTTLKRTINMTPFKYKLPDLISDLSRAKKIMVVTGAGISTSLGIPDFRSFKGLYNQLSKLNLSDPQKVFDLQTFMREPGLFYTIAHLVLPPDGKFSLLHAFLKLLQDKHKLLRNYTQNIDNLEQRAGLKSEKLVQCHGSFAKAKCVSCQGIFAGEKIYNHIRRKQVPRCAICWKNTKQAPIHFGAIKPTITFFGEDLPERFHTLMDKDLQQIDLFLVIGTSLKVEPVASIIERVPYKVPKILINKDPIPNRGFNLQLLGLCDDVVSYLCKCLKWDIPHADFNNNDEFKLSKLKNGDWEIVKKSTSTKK

Target: Sir2 tagged with 3xHA (Candida albicans) (UniProt O59923)
Assay: co-IP; 10 mg crude lysate of Spider-induced BW-pYPB-HX-6HF-SIR-3HA cells incubated with anti-HA agarose 2 hrs at 4°C in NP-40 buffer (50 mM NaH2PO4 pH 8.0, 150 mM NaCl, 1% Nonidet P-40); Hxk1 detected by Western blot with anti-FLAG antibody; duplicates

B1: CaHxk1 tagged with the 6xHis-FLAG epitope sequence, expressed under the ADH1 promoter (enzyme, UniProt Q59RW5 1-493)
chain: MTETSISGLRGPKSMYFMEIVDVSSQESSVLSSIVESFTSAVSASNLGVYSDEVLCDIKSSLKENSPITMLPNYNVSPTGDEHGQYLVIDLGGSTLRIAVVDISKPHPNLSRSERITIVVEKSWIIGNDFKRIDGEFFKYIGSKINEILMGQNVIDVKSVINTGITWSFPLETTDYNRGKIKHVSKGYTVGEDIYDKDLKMVLEDTLRQEYGLTLDVQSILNDSLAVYSAGCFIDSKMKLAMVLGTGINMCCSLKRSSDIHPSKMLADATLFNCELSLFGQNLCKDFATKYDIIIDKRFAGLSHHFKTFMEPDPITKTLFQPHELMTSGRYLPELTRLVVVDLIEAGEIFQNVDHQQMYQEYGGFSGELICFVHENDDYDDIHDKLCKAYGWTTVGLSDIVCLKEVVSCIIKRAAFIVANAIIAFFKLLGSDELGGDVTIGYVGSVLNYFHKYRRLIVEYVNSAEEAKGIKVDLKLIENSSIIGAAIGAAYHK
For B1, the binding was “binds”.
